From the supplement of paper PMC10338343
± gives the standard deviation. Some of the results follow. The uncertainty is large for many entries.

Tested on: EfPiwi piRISC loaded with L1MC piRNA (26 nt)
Experiment: pre-steady-state target cleavage rate (min^-1); guide: L1MC piRNA 5'p-UAACUAAAUACUAUGCAAGCUGUAGG; MIWI and MILI are mouse PIWI proteins and EfPiwi is from a freshwater sponge; tags in brackets are library labels; higher = faster piRNA-guided slicing of the target
Method in brief: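 The pre-steady-state cleavage rate was obtained by Cleave-'n-Seq with a burst-and-steady-state fit. A transcribed, DNA-blocked target RNA library (0.1 nM) was mixed with 1 nM active affinity-purified piRISC carrying one synthetic guide, with or without 500 nM GTSF1 partner protein, in HEPES–potassium acetate buffer at 33 °C for 0–8 or 0–960 min. Uncleaved targets were sequenced and normalised to depth and to weakly complementary targets, with three trials pooled and k3 capped at 0.0001 min^-1.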

[1] = auxiliary factor: 500 nM Ephydatia muelleri Gtsf1
[2] = auxiliary factor: none (no Gtsf1)

Sequence | pre-steady-state target cleavage rate [1] | pre-steady-state target cleavage rate [2]
UCCUGGAACAGCUUGCAUAGUUUUUAGUUA | 0.00683 ± 0.0019 | 0.000817 ± 0.0085
UCCUGCUACAGCUUGCAUAGUAUCUUAGUUA | 0.00633 ± 0.0017 | 0.000789 ± 0.0084
UCCUGGUACAGCUUGCAAUAGUAUUUAGUUA | 0.00587 ± 0.0028 | 0.000822 ± 0.012
UCCUGGAUGUGCUUGCAUAGUAUUUAGUUC [g2:g20:cont:t1C] | 0.0175 ± 0.0048 | 0.0019 ± 0.0057
UCCUGGAUGAGCUAUGCAUAGUAUUUAGUUA | 0.0256 ± 0.0076 | 0.00124 ± 0.0058
UCCUCCUACAGCAUGCAUAGAAUUUAGUUA | 0.00245 ± 0.0015 | 0.00039 ± 0.013
UCCUGGAUGUCCUUGCAUAGUAUUUAGUUG [g2:g19:cont:t1G] | 0.00478 ± 0.0018 | 0.000557 ± 0.011
UCCUGGAACAGCUUGCAUAGUAUUUAGUUG [g2:g23:cont:t1G] | 0.0115 ± 0.0034 | 0.000254 ± 0.018
UCCUGGAACAGCUUGCAUAGUCUUUAGUUA | 0.00979 ± 0.0029 | 0.0021 ± 0.0064
UCCUGGAUCAGCUUGCAUAGUAUAUAGUUA | 0.0716 ± 0.02 | 0.0117 ± 0.0058
UCCUGCUUGAGCUUGCAUAGUAUUUACAAA | 0.00279 ± 0.0023 | 0.000223 ± 0.02
UCCUGGUACAGCUUCGAUAGUAUUUAGUUA | 0.00411 ± 0.0026 | 0.000413 ± 0.022
UCCUGGAACAGCUUGCAUAGUAUUUAGUAUA | 0.00935 ± 0.005 | 0.000485 ± 0.021
UCCUGGAUGAGCUUAGCAUAGUAUUUAGUUA | 0.0344 ± 0.0086 | 0.00174 ± 0.0061
UCCUGGAUGAGCAUGGAUAGUAUUUAGUUA | 0.00257 ± 0.0028 | 0.000282 ± 0.034
UCCUGGAUGUGCUUGCAUACUAUUUAGUUA | 0.0112 ± 0.0036 | 0.00208 ± 0.0062
UCCUGCUACUGCUUGGAUAGUAUUUAGUUA | 0.0111 ± 0.0029 | 0.00353 ± 0.004
UCCUGGAUCUGCAUGCAUAGUAUUUAGUUA | 0.0798 ± 0.021 | 0.00086 ± 0.01
UCCUGGAUCAGCUUGCAUAGUGAUUUAGUUA | 0.000282 ± 0.028 | 0.000294 ± 0.033
UCCUGGAUCAGCUUGCAUAGUAUUUAGGUUA | 0.00516 ± 0.0024 | 0.00113 ± 0.0093

Quoted at random: three entries already listed
Sequence | pre-steady-state target cleavage rate [1] | pre-steady-state target cleavage rate [2]
UCCUGGAUCAGCUUGCAUAGUAUUUAGGUUA | 0.00516 ± 0.0024 | 0.00113 ± 0.0093
UCCUGGAUCAGCUUGCAUAGUAUAUAGUUA | 0.0716 ± 0.02 | 0.0117 ± 0.0058
UCCUGGAUGAGCAUGGAUAGUAUUUAGUUA | 0.00257 ± 0.0028 | 0.000282 ± 0.034

The list continues:

Sequence | pre-steady-state target cleavage rate [1] | pre-steady-state target cleavage rate [2]
UCCUGGAUCAGCUUGCAUAGUAUAUUAGUUA | 0.127 ± 0.043 | 0.000753 ± 0.018
UCCUGGAUGUGCCUGCAUAGUAUUUAGUUA | 0.00933 ± 0.0036 | 0.000834 ± 0.013
UCCUGCUAGAGCUUGCUUAGUAUUUAGUUA | 0.00554 ± 0.002 | 0.000982 ± 0.0069
UCCUGGUACAGGUUGCAUACUAUUUAGUUA | 0.00258 ± 0.002 | 0.000728 ± 0.015
UCCUGGAUCUGCUUGCAUAGUAUUAAGUUA | 0.00735 ± 0.0037 | 0.0025 ± 0.0051
UCCUCCAACAGCUUGCAUAGUAUUAAGUUA | 0.00502 ± 0.002 | 0.000605 ± 0.0088
UCCUGGUACAGCUUGUCAUAGUAUUUAGUUA | 0.00651 ± 0.0024 | 0.00275 ± 0.0049
UCCUGGAUGUGCUUGCAAAGUAUUUUGUUA | 0.000977 ± 0.0043 | < 0.0001
UCCUGGAUCAGCUUGGAUAGUAUAUAGUUA | 0.0019 ± 0.0039 | 0.000556 ± 0.016
UCCUGGAUGAGCUUGCAAAGUAUUUAGAAA | 0.00395 ± 0.0031 | 0.000464 ± 0.017
UCCUGGAUGUCGAACGUAUGUAUUUAGUAA | 0.000243 ± 0.021 | < 0.0001
UCCUGGUUCAGCUUGCAUACUAUUUAGUUA | 0.00751 ± 0.0031 | 0.00157 ± 0.0091
UCCUGCUUCAGCUUGCAUACUAUUUAGUUA | 0.00801 ± 0.0025 | 0.000998 ± 0.0089
UCCUGGAUGUCGAAGCAUAGUAUUUUCAUA | 0.000259 ± 0.0081 | 0.000458 ± 0.013
UCCUGGAUGAGCUAGCAUAGUAUUUAGUUA | 0.00597 ± 0.002 | 0.00169 ± 0.0064
UCCUGGAUGAGCUUGGAUAGUAUAUAGUUA | 0.000315 ± 0.029 | 0.000131 ± 0.07
UCCUGCUUCAGCUUGCAUAGUAUUAAGUUA | 0.00492 ± 0.0016 | 0.000492 ± 0.011
UCCUGCUACUGCUUGCAUUGUAUUUAGUUA | 0.00835 ± 0.0023 | 0.000996 ± 0.0065
UCCUGGUACAGCUUGCAUAGUAUUUCAGUUA | 0.00172 ± 0.0063 | 0.000417 ± 0.027
UCCUGGAUGAGCUUGCAUAGAAUUUAGAUA | 0.00158 ± 0.0024 | 0.000436 ± 0.013

Sequence | pre-steady-state target cleavage rate [1] | pre-steady-state target cleavage rate [2]
UCCUGGAUGUCGAACGUUAGUAUUUGAGUUA | 0.000257 ± 0.031 | 0.000207 ± 0.029
UCCUGGAUGACCUUGCAUAGUUUUUAGUUA | 0.00117 ± 0.0061 | 0.000441 ± 0.018
UCCUGGAUCAGCAUGGAUAGUAUUUAGUUA | 0.00169 ± 0.0039 | 0.000214 ± 0.031
UCCUGGAAGAGCUUGCUUAGUAUUUAGUUA | 0.0135 ± 0.0043 | 0.00878 ± 0.005
UCCUCCUACAGCUUGCAUAGAUUUUAGUUA | 0.0032 ± 0.002 | 0.000839 ± 0.006
UCCUGGAACAGCUUGCAUAGUAUAUAGAUA | 0.00205 ± 0.0026 | 0.000535 ± 0.017
UCCUGGAACAGGUUGCUUAGUAUUUAGUUA | 0.00924 ± 0.0022 | 0.000725 ± 0.013
UCCUGCAACACCUUGCAUAGUAUUUAGUUA | 0.0123 ± 0.0034 | 0.00063 ± 0.011
UCCUGGAACAGCUUGCAUAGUAUGUUAGUUA | 0.00812 ± 0.0028 | 0.000243 ± 0.045
UCCUGGAACAGCUUGCAAAGAAUUUAGUUA | 0.000753 ± 0.0045 | 0.00058 ± 0.011
UCCUGCUACAGCUUGGAUAGUAUUUUGUUA | 0.00556 ± 0.002 | 0.000632 ± 0.0092
UCCUGGAUGAGCAUUGCAUAGUAUUUAGUUA | 0.008 ± 0.0029 | 0.00132 ± 0.0061
UCCUGGUACAGCUUGCAUAGUUAUUAGUAA | 0.00807 ± 0.0043 | 0.00165 ± 0.0068
UCCUGGAUGUGCUAGCAUUGUAUUUAGUUA | 0.000393 ± 0.012 | 0.000282 ± 0.025
UCCUGGAUCAGCAUGCAUAGUAUUUUGUUA | 0.00227 ± 0.0039 | 0.00033 ± 0.026
UCCUGGAUCAGCUUGCAUAGUAAUUUAGUUA | 0.00371 ± 0.0025 | 0.00162 ± 0.0071
UCCUGGAUGAGCUUGCAUAGUAUAAUCAAA | 0.00224 ± 0.0046 | 0.000371 ± 0.024
UCCUGGAUGAGCUUGCAUUGUAUAUAGUUA | 0.00208 ± 0.006 | 0.000447 ± 0.019
UCCUGGAACAGCUUGCAAAGUAUUAAGUUA | 0.00406 ± 0.003 | 0.000308 ± 0.023
UCCUGCUACAGCUUGCAUAGUAUUUUGAUA | 0.00307 ± 0.0023 | 0.000509 ± 0.011
